US20240209062A1 (INVETX, published 2024)
These are yes or no findings as the source states them, for the method shown. Some entries that bind do so weakly or less than the wild type. Where a sequence is shown, tags or fusion partners need not be part of it.

The chains behind the UniProt entries cited, without tags or fusion partners. Where a name states a change or a piece, a line headed by the entry shows the natural chain unless it says otherwise.
UniProt Q5MGS7: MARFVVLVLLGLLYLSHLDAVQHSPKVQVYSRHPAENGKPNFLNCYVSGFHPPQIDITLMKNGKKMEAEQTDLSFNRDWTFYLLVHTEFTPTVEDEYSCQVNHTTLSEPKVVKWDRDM

B1: IgG with feline IgG1a Fc variant S252Y, R392D (antibody)
heavy: DVQLVESGGDLVKPGGSLRLTCVASGLSLTSDSMSWVRQAPGKGLQWVSTLWSNRGTYYTDSVKGRFTISKDNAENTLYLQMNNLKTEDTATYYCASIYYYEADYLHWYFDFWGQGALVTVSSASTTAPSVFPLAPSCGTTSGATVALACLVLGYFPEPVTVSWNSGALTSGVHTFPAVLQASGLYSLSSMVTVPSSRWLSDTFTCNVAHPPSNTKVDKTVRKTDHPPGPKPCDCPKCPPPEAAGGPSIFIFPPKPKDTLYISRTPEVTCLVVDLGPDDSDVQITWFVDNTQVYTAKTSPREEQFNSTYRVVSVLPILHQDWLKGKEFKCKVNSKSLPSPIERTISKAKGQPHEPQVYVLPPAQEELSRNKVSVTCLIKSFHPPDIAVEWEITGQPEPENNYDTTPPQLDSDGTYFVYSKLSVDRSHWQRGNTYTCSVSHEALHSHHTQKSLTQSPG
light: EIQMTQSPTSLSASVGDRVTITCRASEGIANNLSWYQQTPGKAPKLLIYATSNLHSGVPSRFSGSGSGTDFTLTISSLQPEDFATYYCQQGFKWPLTFGGGTKLEITRSDAQPSVFLFQPSLDELHTGSASIVCILNDFYPKEVNVKWKVDGVVQNKGIQESTTEQNSKDSTYSLSSTLTMSSTEYQSHEKFSCEVTHKSLASTLVKSFNRSECQRE
notes: IgG1a constant domain with MALA mutations (M234A, L244A as printed); variable domains from WO 2023/97275
B2: IgG with feline IgG1a Fc variant S252Y, R392E (antibody)
heavy: DVQLVESGGDLVKPGGSLRLTCVASGLSLTSDSMSWVRQAPGKGLQWVSTLWSNRGTYYTDSVKGRFTISKDNAENTLYLQMNNLKTEDTATYYCASIYYYEADYLHWYFDFWGQGALVTVSSASTTAPSVFPLAPSCGTTSGATVALACLVLGYFPEPVTVSWNSGALTSGVHTFPAVLQASGLYSLSSMVTVPSSRWLSDTFTCNVAHPPSNTKVDKTVRKTDHPPGPKPCDCPKCPPPEAAGGPSIFIFPPKPKDTLYISRTPEVTCLVVDLGPDDSDVQITWFVDNTQVYTAKTSPREEQFNSTYRVVSVLPILHQDWLKGKEFKCKVNSKSLPSPIERTISKAKGQPHEPQVYVLPPAQEELSRNKVSVTCLIKSFHPPDIAVEWEITGQPEPENNYETTPPQLDSDGTYFVYSKLSVDRSHWQRGNTYTCSVSHEALHSHHTQKSLTQSPG
light: EIQMTQSPTSLSASVGDRVTITCRASEGIANNLSWYQQTPGKAPKLLIYATSNLHSGVPSRFSGSGSGTDFTLTISSLQPEDFATYYCQQGFKWPLTFGGGTKLEITRSDAQPSVFLFQPSLDELHTGSASIVCILNDFYPKEVNVKWKVDGVVQNKGIQESTTEQNSKDSTYSLSSTLTMSSTEYQSHEKFSCEVTHKSLASTLVKSFNRSECQRE
notes: as for B1
B3: IgG with feline IgG1a Fc variant S252Y, T286D (antibody)
heavy: DVQLVESGGDLVKPGGSLRLTCVASGLSLTSDSMSWVRQAPGKGLQWVSTLWSNRGTYYTDSVKGRFTISKDNAENTLYLQMNNLKTEDTATYYCASIYYYEADYLHWYFDFWGQGALVTVSSASTTAPSVFPLAPSCGTTSGATVALACLVLGYFPEPVTVSWNSGALTSGVHTFPAVLQASGLYSLSSMVTVPSSRWLSDTFTCNVAHPPSNTKVDKTVRKTDHPPGPKPCDCPKCPPPEAAGGPSIFIFPPKPKDTLYISRTPEVTCLVVDLGPDDSDVQITWFVDNTQVYDAKTSPREEQFNSTYRVVSVLPILHQDWLKGKEFKCKVNSKSLPSPIERTISKAKGQPHEPQVYVLPPAQEELSRNKVSVTCLIKSFHPPDIAVEWEITGQPEPENNYRTTPPQLDSDGTYFVYSKLSVDRSHWQRGNTYTCSVSHEALHSHHTQKSLTQSPG
light: EIQMTQSPTSLSASVGDRVTITCRASEGIANNLSWYQQTPGKAPKLLIYATSNLHSGVPSRFSGSGSGTDFTLTISSLQPEDFATYYCQQGFKWPLTFGGGTKLEITRSDAQPSVFLFQPSLDELHTGSASIVCILNDFYPKEVNVKWKVDGVVQNKGIQESTTEQNSKDSTYSLSSTLTMSSTEYQSHEKFSCEVTHKSLASTLVKSFNRSECQRE
notes: as for B1

target: feline FcRn (soluble portion of large subunit p51 isoform X1 with C-terminal 6xHis-tag, co-expressed with feline beta2-microglobulin with C-terminal STREP-TAG II) (feline) (UniProt Q5MGS7); assay: SPR, pH 5.9

binding, binds:
B1
B2
B3
